Measurements from article PMC2515640.
No constants are given. Whether binding was seen depends on the method and setting. Binding seen in cells or lysates may run through a third protein.

Chains of the proteins cited; added tags and fusions are not shown.
UniProt Q14137: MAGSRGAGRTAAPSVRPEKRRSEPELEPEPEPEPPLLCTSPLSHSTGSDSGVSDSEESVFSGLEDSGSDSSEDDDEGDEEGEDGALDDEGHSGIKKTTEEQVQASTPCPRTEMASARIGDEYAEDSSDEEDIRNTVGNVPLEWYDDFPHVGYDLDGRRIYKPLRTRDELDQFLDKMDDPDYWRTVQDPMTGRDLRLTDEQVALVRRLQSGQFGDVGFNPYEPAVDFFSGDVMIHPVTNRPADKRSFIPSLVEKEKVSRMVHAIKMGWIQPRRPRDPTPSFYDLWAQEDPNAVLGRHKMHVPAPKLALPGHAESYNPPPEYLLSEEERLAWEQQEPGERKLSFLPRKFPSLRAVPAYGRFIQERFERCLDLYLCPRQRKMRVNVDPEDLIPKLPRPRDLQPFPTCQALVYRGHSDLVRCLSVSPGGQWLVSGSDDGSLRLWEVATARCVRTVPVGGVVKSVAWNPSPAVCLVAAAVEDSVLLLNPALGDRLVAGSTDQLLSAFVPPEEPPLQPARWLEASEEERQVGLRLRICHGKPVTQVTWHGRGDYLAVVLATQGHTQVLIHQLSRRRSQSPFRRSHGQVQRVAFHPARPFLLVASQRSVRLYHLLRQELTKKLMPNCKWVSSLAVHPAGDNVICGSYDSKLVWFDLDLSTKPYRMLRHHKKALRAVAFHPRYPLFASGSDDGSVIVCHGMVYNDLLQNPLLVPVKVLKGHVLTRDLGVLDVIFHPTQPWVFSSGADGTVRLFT

Target: Bop1 (human (endogenous in U2OS)) (UniProt Q14137)
Test: co-IP; U2OS cell lysates immunoprecipitated with anti-WDR12, anti-Pes1 or anti-Bop1 antibodies or normal rat IgG; Western blot for Pes1 and WDR55; 2.5% of input loaded; carried out as described in ref. 35

- binding: no binding
B1: WDR55 (protein, UniProt Q9H6Y2 1-383)
chain: MDRTCEERPAEDGSDEEDPDSMEAPTRIRDTPEDIVLEAPASGLAFHPARDLLAAGDVDGDVFVFSYSCQEGETKELWSSGHHLKACRAVAFSEDGQKLITVSKDKAIHVLDVEQGQLERRVSKAHGAPINSLLLVDENVLATGDDTGGICLWDQRKEGPLMDMRQHEEYIADMALDPAKKLLLTASGDGCLGIFNIKRRRFELLSEPQSGDLTSVTLMKWGKKVACGSSEGTIYLFNWNGFGATSDRFALRAESIDCMVPVTESLLCTGSTDGVIRAVNILPNRVVGSVGQHTGEPVEELALSHCGRFLASSGHDQRLKFWDMAQLRAVVVDDYRRRKKKGGPLRALSSKTWSTDDFFAGLREEGEDSMAQEEKEETGDDSD
